Measurements published in publication doi:10.1101/311365.
No constants are given. Whether binding was seen depends on the method and setting. Binding seen in cells or lysates may run through a third protein. For some assays here: A result given as binding can be weak or reduced; the word gives no strength. Tags and fused reporters may be left off the sequences shown.

Chains of the proteins cited; added tags and fusions are not shown. Lines headed by an entry give the natural chain unless they say otherwise; changes in a name come on top.
UniProt O75077: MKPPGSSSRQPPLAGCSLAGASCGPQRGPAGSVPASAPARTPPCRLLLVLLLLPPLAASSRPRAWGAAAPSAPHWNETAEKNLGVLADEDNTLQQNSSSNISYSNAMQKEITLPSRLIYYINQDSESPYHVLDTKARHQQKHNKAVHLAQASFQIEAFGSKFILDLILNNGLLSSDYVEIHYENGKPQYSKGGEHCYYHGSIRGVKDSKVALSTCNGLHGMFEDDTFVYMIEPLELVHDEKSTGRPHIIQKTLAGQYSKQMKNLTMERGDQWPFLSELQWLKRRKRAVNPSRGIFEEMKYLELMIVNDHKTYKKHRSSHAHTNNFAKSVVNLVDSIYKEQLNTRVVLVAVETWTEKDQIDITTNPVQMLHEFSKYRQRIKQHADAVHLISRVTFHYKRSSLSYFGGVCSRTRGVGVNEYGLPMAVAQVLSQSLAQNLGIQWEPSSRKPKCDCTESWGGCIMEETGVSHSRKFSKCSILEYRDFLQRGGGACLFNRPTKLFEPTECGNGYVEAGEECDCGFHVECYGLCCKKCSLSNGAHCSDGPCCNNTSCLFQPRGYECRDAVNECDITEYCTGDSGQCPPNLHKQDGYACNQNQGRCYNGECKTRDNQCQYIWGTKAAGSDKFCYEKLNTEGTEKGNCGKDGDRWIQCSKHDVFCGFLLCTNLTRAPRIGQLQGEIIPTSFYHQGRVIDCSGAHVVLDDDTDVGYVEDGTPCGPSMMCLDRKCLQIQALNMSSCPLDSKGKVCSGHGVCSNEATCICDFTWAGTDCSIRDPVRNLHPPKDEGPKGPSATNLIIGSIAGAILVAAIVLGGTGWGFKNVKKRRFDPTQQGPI
UniProt Q9P0K1: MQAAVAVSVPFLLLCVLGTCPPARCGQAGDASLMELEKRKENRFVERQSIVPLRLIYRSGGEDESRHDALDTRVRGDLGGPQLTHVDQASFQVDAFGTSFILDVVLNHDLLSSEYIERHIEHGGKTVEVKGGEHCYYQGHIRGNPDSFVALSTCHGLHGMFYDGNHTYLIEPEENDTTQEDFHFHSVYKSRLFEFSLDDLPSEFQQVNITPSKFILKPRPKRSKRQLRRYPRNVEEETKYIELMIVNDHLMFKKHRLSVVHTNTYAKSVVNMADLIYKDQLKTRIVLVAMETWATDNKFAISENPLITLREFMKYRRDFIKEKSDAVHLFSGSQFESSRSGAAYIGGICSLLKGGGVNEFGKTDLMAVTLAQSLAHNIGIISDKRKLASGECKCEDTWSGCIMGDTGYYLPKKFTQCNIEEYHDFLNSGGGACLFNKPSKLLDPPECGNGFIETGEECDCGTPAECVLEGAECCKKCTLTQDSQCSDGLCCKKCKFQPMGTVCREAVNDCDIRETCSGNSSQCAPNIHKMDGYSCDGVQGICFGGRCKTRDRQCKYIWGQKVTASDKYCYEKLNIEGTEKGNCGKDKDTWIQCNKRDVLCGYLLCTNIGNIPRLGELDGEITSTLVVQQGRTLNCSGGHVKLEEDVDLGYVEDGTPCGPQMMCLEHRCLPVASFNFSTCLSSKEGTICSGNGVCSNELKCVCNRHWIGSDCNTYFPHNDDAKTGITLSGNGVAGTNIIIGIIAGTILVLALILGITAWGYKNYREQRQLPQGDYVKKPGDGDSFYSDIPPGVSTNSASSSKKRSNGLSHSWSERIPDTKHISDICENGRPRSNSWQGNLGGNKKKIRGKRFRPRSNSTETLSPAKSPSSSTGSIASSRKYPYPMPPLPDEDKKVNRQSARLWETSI

Key:
Assay in all cases: co-IP
[1] = target: T1, LGI1-GFP (Leucine-rich Glioma Inactivated 1 fused to GFP) (human) (UniProt O95970)
T1 sequence: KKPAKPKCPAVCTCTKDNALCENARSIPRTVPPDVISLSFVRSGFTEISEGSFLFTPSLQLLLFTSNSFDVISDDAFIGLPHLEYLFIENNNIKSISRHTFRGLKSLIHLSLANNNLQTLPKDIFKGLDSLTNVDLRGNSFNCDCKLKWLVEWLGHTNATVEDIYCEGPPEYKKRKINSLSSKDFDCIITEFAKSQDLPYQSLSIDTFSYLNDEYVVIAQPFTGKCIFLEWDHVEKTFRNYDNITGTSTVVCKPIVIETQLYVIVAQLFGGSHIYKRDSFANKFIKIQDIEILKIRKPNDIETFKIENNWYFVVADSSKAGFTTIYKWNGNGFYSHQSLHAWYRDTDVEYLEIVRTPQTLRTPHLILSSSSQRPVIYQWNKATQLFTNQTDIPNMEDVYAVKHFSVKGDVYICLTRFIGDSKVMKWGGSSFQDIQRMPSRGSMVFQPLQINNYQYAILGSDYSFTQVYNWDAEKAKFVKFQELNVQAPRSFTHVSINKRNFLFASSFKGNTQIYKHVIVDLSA

TAG-1-GFP (human) = target: T2, TAG-1-GFP (human) (UniProt Q02246)
T2 sequence: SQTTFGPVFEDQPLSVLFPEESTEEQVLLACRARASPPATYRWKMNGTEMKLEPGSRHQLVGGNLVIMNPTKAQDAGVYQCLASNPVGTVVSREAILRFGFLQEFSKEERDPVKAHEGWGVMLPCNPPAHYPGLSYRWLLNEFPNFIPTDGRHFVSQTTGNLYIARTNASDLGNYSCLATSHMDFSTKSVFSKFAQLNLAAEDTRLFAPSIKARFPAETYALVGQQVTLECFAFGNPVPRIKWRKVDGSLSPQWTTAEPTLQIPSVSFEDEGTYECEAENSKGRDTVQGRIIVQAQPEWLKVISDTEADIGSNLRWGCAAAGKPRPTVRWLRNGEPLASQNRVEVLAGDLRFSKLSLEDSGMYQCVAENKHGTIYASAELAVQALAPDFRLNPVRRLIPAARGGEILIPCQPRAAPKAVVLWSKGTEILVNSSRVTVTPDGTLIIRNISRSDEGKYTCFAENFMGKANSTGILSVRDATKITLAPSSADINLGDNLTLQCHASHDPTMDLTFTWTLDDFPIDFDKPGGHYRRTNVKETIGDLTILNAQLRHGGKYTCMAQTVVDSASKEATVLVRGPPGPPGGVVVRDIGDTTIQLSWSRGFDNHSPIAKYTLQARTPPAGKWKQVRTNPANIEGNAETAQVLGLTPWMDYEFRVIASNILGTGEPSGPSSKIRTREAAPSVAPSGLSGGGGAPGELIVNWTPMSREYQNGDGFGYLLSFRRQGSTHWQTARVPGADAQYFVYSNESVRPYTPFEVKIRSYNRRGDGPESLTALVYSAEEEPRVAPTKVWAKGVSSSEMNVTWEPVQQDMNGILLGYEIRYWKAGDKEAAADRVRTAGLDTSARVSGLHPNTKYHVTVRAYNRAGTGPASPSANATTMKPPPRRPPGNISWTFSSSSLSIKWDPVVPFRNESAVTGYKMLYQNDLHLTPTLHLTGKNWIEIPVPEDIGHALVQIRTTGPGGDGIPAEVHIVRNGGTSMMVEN

ADAM23-mCherry (human) = ADAM23-mCherry (human) (UniProt O75077)
ADAM22-mCherry (human) = ADAM22-mCherry (human) (UniProt Q9P0K1)

For ADAM23-mCherry (from UniProt O75077), the binding [1] was “binds” and the binding (TAG-1-GFP (human)) was “no binding”.

B1: LGI1-GFP (Leucine-rich Glioma Inactivated 1 fused to GFP) (protein, UniProt O95970 35-557)
chain: KKPAKPKCPAVCTCTKDNALCENARSIPRTVPPDVISLSFVRSGFTEISEGSFLFTPSLQLLLFTSNSFDVISDDAFIGLPHLEYLFIENNNIKSISRHTFRGLKSLIHLSLANNNLQTLPKDIFKGLDSLTNVDLRGNSFNCDCKLKWLVEWLGHTNATVEDIYCEGPPEYKKRKINSLSSKDFDCIITEFAKSQDLPYQSLSIDTFSYLNDEYVVIAQPFTGKCIFLEWDHVEKTFRNYDNITGTSTVVCKPIVIETQLYVIVAQLFGGSHIYKRDSFANKFIKIQDIEILKIRKPNDIETFKIENNWYFVVADSSKAGFTTIYKWNGNGFYSHQSLHAWYRDTDVEYLEIVRTPQTLRTPHLILSSSSQRPVIYQWNKATQLFTNQTDIPNMEDVYAVKHFSVKGDVYICLTRFIGDSKVMKWGGSSFQDIQRMPSRGSMVFQPLQINNYQYAILGSDYSFTQVYNWDAEKAKFVKFQELNVQAPRSFTHVSINKRNFLFASSFKGNTQIYKHVIVDLSA
In the case of B1, the binding (ADAM23-mCherry (human)) is reported as “binds”.

B2: Caspr2Δcyt-HA (Caspr2 deleted from its cytoplasmic tail) (domain or fragment, UniProt Q9UHC6 28-1284)
chain: APSTSQKCDEPLVSGLPHVAFSSSSSISGSYSPGYAKINKRGGAGGWSPSDSDHYQWLQVDFGNRKQISAIATQGRYSSSDWVTQYRMLYSDTGRNWKPYHQDGNIWAFPGNINSDGVVRHELQHPIIARYVRIVPLDWNGEGRIGLRIEVYGCSYWADVINFDGHVVLPYRFRNKKMKTLKDVIALNFKTSESEGVILHGEGQQGDYITLELKKAKLVLSLNLGSNQLGPIYGHTSVMTGSLLDDHHWHSVVIERQGRSINLTLDRSMQHFRTNGEFDYLDLDYEITFGGIPFSGKPSSSSRKNFKGCMESINYNGVNITDLARRKKLEPSNVGNLSFSCVEPYTVPVFFNATSYLEVPGRLNQDLFSVSFQFRTWNPNGLLVFSHFADNLGNVEIDLTESKVGVHINITQTKMSQIDISSGSGLNDGQWHEVRFLAKENFAILTIDGDEASAVRTNSPLQVKTGEKYFFGGFLNQMNNSSHSVLQPSFQGCMQLIQVDDQLVNLYEVAQRKPGSFANVSIDMCAIIDRCVPNHCEHGGKCSQTWDSFKCTCDETGYSGATCHNSIYEPSCEAYKHLGQTSNYYWIDPDGSGPLGPLKVYCNMTEDKVWTIVSHDLQMQTPVVGYNPEKYSVTQLVYSASMDQISAITDSAEYCEQYVSYFCKMSRLLNTPDGSPYTWWVGKANEKHYYWGGSGPGIQKCACGIERNCTDPKYYCNCDADYKQWRKDAGFLSYKDHLPVSQVVVGDTDRQGSEAKLSVGPLRCQGDRNYWNAASFPNPSSYLHFSTFQGETSADISFYFKTLTPWGVFLENMGKEDFIKLELKSATEVSFSFDVGNGPVEIVVRSPTPLNDDQWHRVTAERNVKQASLQVDRLPQQIRKAPTEGHTRLELYSQLFVGGAGGQQGFLGCIRSLRMNGVTLDLEERAKVTSGFISGCSGHCTSYGTNCENGGKCLERYHGYSCDCSNTAYDGTFCNKDVGAFFEEGMWLRYNFQAPATNARDSSSRVDNAPDQQNSHPDLAQEEIRFSFSTTKAPCILLYISSFTTDFLAVLVKPTGSLQIRYNLGGTREPYNIDVDHRNMANGQPHSVNITRHEKTIFLKLDHYPSVSYHLPSSSDTLFNSPKSLFLGKVIETGKIDQEIHKYNTPGFTGCLSRVQFNQIAPLKAALRQTNASAHVHIQGELVESNCGASPLTLSPMSSATDPWHLDHLDSASADFPYNPGQGQAIRNGVNRNSAIIGGVIAVVIFTILCTLVFLIR
With B2 the binding (ADAM22-mCherry (human)) was “binds” and the binding (ADAM23-mCherry (human)) was “binds”.

B3: TAG-1-GFP (protein, UniProt Q02246 31-1012)
chain: SQTTFGPVFEDQPLSVLFPEESTEEQVLLACRARASPPATYRWKMNGTEMKLEPGSRHQLVGGNLVIMNPTKAQDAGVYQCLASNPVGTVVSREAILRFGFLQEFSKEERDPVKAHEGWGVMLPCNPPAHYPGLSYRWLLNEFPNFIPTDGRHFVSQTTGNLYIARTNASDLGNYSCLATSHMDFSTKSVFSKFAQLNLAAEDTRLFAPSIKARFPAETYALVGQQVTLECFAFGNPVPRIKWRKVDGSLSPQWTTAEPTLQIPSVSFEDEGTYECEAENSKGRDTVQGRIIVQAQPEWLKVISDTEADIGSNLRWGCAAAGKPRPTVRWLRNGEPLASQNRVEVLAGDLRFSKLSLEDSGMYQCVAENKHGTIYASAELAVQALAPDFRLNPVRRLIPAARGGEILIPCQPRAAPKAVVLWSKGTEILVNSSRVTVTPDGTLIIRNISRSDEGKYTCFAENFMGKANSTGILSVRDATKITLAPSSADINLGDNLTLQCHASHDPTMDLTFTWTLDDFPIDFDKPGGHYRRTNVKETIGDLTILNAQLRHGGKYTCMAQTVVDSASKEATVLVRGPPGPPGGVVVRDIGDTTIQLSWSRGFDNHSPIAKYTLQARTPPAGKWKQVRTNPANIEGNAETAQVLGLTPWMDYEFRVIASNILGTGEPSGPSSKIRTREAAPSVAPSGLSGGGGAPGELIVNWTPMSREYQNGDGFGYLLSFRRQGSTHWQTARVPGADAQYFVYSNESVRPYTPFEVKIRSYNRRGDGPESLTALVYSAEEEPRVAPTKVWAKGVSSSEMNVTWEPVQQDMNGILLGYEIRYWKAGDKEAAADRVRTAGLDTSARVSGLHPNTKYHVTVRAYNRAGTGPASPSANATTMKPPPRRPPGNISWTFSSSSLSIKWDPVVPFRNESAVTGYKMLYQNDLHLTPTLHLTGKNWIEIPVPEDIGHALVQIRTTGPGGDGIPAEVHIVRNGGTSMMVEN
In the case of B3, the binding (ADAM22-mCherry (human)) is reported as “binds” and the binding (ADAM23-mCherry (human)) is reported as “no binding”.

B4: Caspr2-HA (full-length) (protein, UniProt Q9UHC6 28-1331)
chain: APSTSQKCDEPLVSGLPHVAFSSSSSISGSYSPGYAKINKRGGAGGWSPSDSDHYQWLQVDFGNRKQISAIATQGRYSSSDWVTQYRMLYSDTGRNWKPYHQDGNIWAFPGNINSDGVVRHELQHPIIARYVRIVPLDWNGEGRIGLRIEVYGCSYWADVINFDGHVVLPYRFRNKKMKTLKDVIALNFKTSESEGVILHGEGQQGDYITLELKKAKLVLSLNLGSNQLGPIYGHTSVMTGSLLDDHHWHSVVIERQGRSINLTLDRSMQHFRTNGEFDYLDLDYEITFGGIPFSGKPSSSSRKNFKGCMESINYNGVNITDLARRKKLEPSNVGNLSFSCVEPYTVPVFFNATSYLEVPGRLNQDLFSVSFQFRTWNPNGLLVFSHFADNLGNVEIDLTESKVGVHINITQTKMSQIDISSGSGLNDGQWHEVRFLAKENFAILTIDGDEASAVRTNSPLQVKTGEKYFFGGFLNQMNNSSHSVLQPSFQGCMQLIQVDDQLVNLYEVAQRKPGSFANVSIDMCAIIDRCVPNHCEHGGKCSQTWDSFKCTCDETGYSGATCHNSIYEPSCEAYKHLGQTSNYYWIDPDGSGPLGPLKVYCNMTEDKVWTIVSHDLQMQTPVVGYNPEKYSVTQLVYSASMDQISAITDSAEYCEQYVSYFCKMSRLLNTPDGSPYTWWVGKANEKHYYWGGSGPGIQKCACGIERNCTDPKYYCNCDADYKQWRKDAGFLSYKDHLPVSQVVVGDTDRQGSEAKLSVGPLRCQGDRNYWNAASFPNPSSYLHFSTFQGETSADISFYFKTLTPWGVFLENMGKEDFIKLELKSATEVSFSFDVGNGPVEIVVRSPTPLNDDQWHRVTAERNVKQASLQVDRLPQQIRKAPTEGHTRLELYSQLFVGGAGGQQGFLGCIRSLRMNGVTLDLEERAKVTSGFISGCSGHCTSYGTNCENGGKCLERYHGYSCDCSNTAYDGTFCNKDVGAFFEEGMWLRYNFQAPATNARDSSSRVDNAPDQQNSHPDLAQEEIRFSFSTTKAPCILLYISSFTTDFLAVLVKPTGSLQIRYNLGGTREPYNIDVDHRNMANGQPHSVNITRHEKTIFLKLDHYPSVSYHLPSSSDTLFNSPKSLFLGKVIETGKIDQEIHKYNTPGFTGCLSRVQFNQIAPLKAALRQTNASAHVHIQGELVESNCGASPLTLSPMSSATDPWHLDHLDSASADFPYNPGQGQAIRNGVNRNSAIIGGVIAVVIFTILCTLVFLIRYMFRHKGTYHTNEAKGAESAESADAAIMNNDPNFTETIDESKKEWLI
For B4, the binding (ADAM22-mCherry (human)) was “binds”.
